The list shows a part of the results. Shown are side measurements of this screen, not its main read-out; they come without a call. Compounds called inactive in the main read-out are mostly missing here. Potencies come from curve fits of mixed quality, noted in brackets.
Test: qHTS Assay for Lipid Storage Modulators in Drosophila S3 Cells;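 on cell number change: cells counted by Cell Tracker Red CMTPX staining in the red channel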
Conditions: BODIPY lipid droplet fluorescence, 18-24 h; for cell number change: measured here: cell count max response, cells fed with added oleic acid
How it was run: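 Laser-scanning cytometry quantifies lipid droplet accumulation (500–530 nm total intensity; droplet/cell object ratio) in oleic acid-fed (400 uM added) Drosophila S3 cells treated with a concentration series. 20 uM Triacsin C defined 100% inhibition.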

[1] = measured here: cell number channel AC50, cells fed with added oleic acid
[2] = measured here: lipid fluorescence (Fed channel) AC50, cells fed with added oleic acid

SMILES	cell number change [%]	AC50 [1]	AC50 [2]
O=C1C=C(c2ccc(Cl)cc2)C(=O)N1Nc1ccccc1	-85.3	10.3 µM [falling, partial curve]	0.13 µM [falling, full curve, poor fit]
CCN1CCN(c2nc3c(C)cccn3c(=O)c2C=C(C#N)C#N)CC1	-40.8	29.1 µM [falling, single point]	29.1 µM [falling, single point]
CCN(CC)S(=O)(=O)c1ccc(Cl)c(C(=O)Nc2cc(C)nn2-c2ccccc2C(F)(F)F)c1	-0.834	–	16.4 µM [falling, single point]
Cc1ccc(CN2C(=O)c3ccccc3C2C(=O)NCC2CCCO2)cc1 (configuration not stated)	27.2	–	–
CCCCn1c(N)c(N(CCOC)C(=O)c2cc3c(s2)CCC3)c(=O)[nH]c1=O	13	–	–
CNC(=O)c1[nH]cnc1C(=O)NCC(=O)OCc1ccccc1	26	–	–
COc1cc2c(CCNC(C)=O)c[nH]c2cc1Cl	33.1	16.4 µM [rising, partial curve, poor fit]	20.6 µM [rising, partial curve]
Cn1c(=O)c2c(nc(CN3CCc4ccccc4C3)n2Cc2cccc(Cl)c2)n(C)c1=O	–	2.31 µM [rising, partial curve]	0.116 µM [rising, full curve, poor fit]
COc1ccc(OCCNc2c([N+](=O)[O-])c(=O)oc3ccccc23)cc1	29	0.291 µM [rising, full curve, poor fit]	–
CCn1cc(S(=O)(=O)N2CCN(Cc3cccc(Cl)c3)CC2)cn1	-17.1	–	0.794 µM [falling, single point]
COc1ccc(CCn2c(C)nc3c(c(=O)c4ccccc4n3C)c2=O)cc1	-19.8	–	–
Cc1ccc(S(=O)(=O)N2CCC(C(=O)NC3CC(C)(C)NC(C)(C)C3)CC2)cc1C	32.6	–	–
CCOc1cc(C(=O)Nc2cccnc2)cc(OCC)c1OCC	16.6	–	29.1 µM [falling, single point]
c1ccc(CSc2nnnn2-c2ccc3c(c2)OCCO3)nc1	32.8	0.411 µM [rising, full curve]	29.1 µM [rising, single point]
O=C(Nc1ccc2oc(-c3ccccc3F)nc2c1)c1ccccc1F	-5.17	–	11.6 µM [falling, partial curve, poor fit]
CN(C)C(=S)Nc1ccc(Cc2ccncc2)cc1	-13.4	–	0.092 µM [falling, full curve]
O=C(/C=C/c1ccco1)NCc1ccc(F)cc1	-4.6	–	20.6 µM [falling, single point]
O=C(C1CCCO1)N(c1ccc(F)cc1)C1C=CS(=O)(=O)C1 (configuration not stated)	-10.5	3.66 µM [falling, single point]	6.51 µM [falling, single point]
NC(=S)n1[nH]c(-c2ccc([N+](=O)[O-])cc2)c(N=Nc2ccccc2[N+](=O)[O-])c1=O	-3.63	–	–

Given as labelled records: entries from further up
Cc1ccc(CN2C(=O)c3ccccc3C2C(=O)NCC2CCCO2)cc1 (configuration not stated)
  cell number change [%]: 27.2
COc1ccc(OCCNc2c([N+](=O)[O-])c(=O)oc3ccccc23)cc1
  cell number change [%]: 29; AC50 [1]: 0.291 µM [rising, full curve, poor fit]
Cc1ccc(S(=O)(=O)N2CCC(C(=O)NC3CC(C)(C)NC(C)(C)C3)CC2)cc1C
  cell number change [%]: 32.6

More results

SMILES	cell number change [%]	AC50 [1]	AC50 [2]
COC(=O)c1ccc(S(N)(=O)=O)o1	-12.7	–	6.51 µM [falling, single point]
Cc1cc(S(=O)(=O)N2CCN(Cc3ccccc3)CC2)c(C)s1	25.8	–	18.4 µM [rising, partial curve, poor fit]
O=c1[nH]c(N2CCc3ccccc32)nc2c1CCCC2	-130	29.1 µM [falling, single point]	29.1 µM [falling, single point]
NS(=O)(=O)c1ccc(CNC(=O)NC2(c3ccccc3)CC2)cc1	-49.4	0.731 µM [falling, full curve]	1.16 µM [falling, full curve]
COC(=O)C1=C(C)OC(N)=C(C#N)C1c1cccnc1 (configuration not stated)	50.4	1.03 µM [rising, partial curve]	–
N#Cc1c(NC(=O)c2cc(C3CC3)on2)sc2c1CCC2	-8.88	–	–
CCNc1ccc(C(=O)OCC(=O)NC(=O)NCC(C)C)cc1[N+](=O)[O-]	2.94	–	–
CCOC(=O)c1cc2n(c1N)-c1ccccc1C2=O	–	–	4.11 µM [rising, single point]
CC/C(C)=N/Nc1nc2sc3c(c2c(=O)[nH]1)CC(C)(C)OC3	37.4	16.4 µM [rising, single point]	6.51 µM [falling, partial curve, poor fit]
COc1ccc(Cl)cc1-n1c(C)cc(C=O)c1C	52.7	23.1 µM [rising, single point]	6.51 µM [falling, single point]
O=C(NCC(c1cccnc1)N1CCN(c2ccccc2F)CC1)C1CCCCC1 (configuration not stated)	-4.45	–	6.51 µM [falling, single point]
CCCc1cc(=O)[nH]c(SCC(=O)N2CCCC2=O)n1	-29.3	0.259 µM [falling, full curve, poor fit]	–
CCOc1ccccc1NC(C)C(=O)NC(=O)NC1CCCCC1 (configuration not stated)	-1.29	–	16.4 µM [falling, single point]
CC(=O)Nc1ccc(-c2csc(Nc3ccc(S(N)(=O)=O)cc3)n2)cc1	-22.5	–	23.1 µM [falling, single point]
CCn1c(SCC(=O)NC2CC2)nnc1-c1cccs1	13.4	0.058 µM [rising, partial curve, poor fit]	–
O=C(NCCNC(=O)C1CC2CCC1C2)C1CC2CCC1C2 (configuration not stated)	-63.3	11.6 µM [falling, partial curve]	4.61 µM [falling, partial curve]
Cc1ccc(C(=O)NCc2ccco2)cc1S(=O)(=O)Nc1cccc(C)c1C	121	23.1 µM [rising, partial curve, poor fit]	–
O=C(c1ccc2c(c1)C(=O)N(CCCO)C2=O)c1ccc2c(c1)C(=O)N(CCCO)C2=O	-7.44	–	29.1 µM [falling, single point]
CCCCN(C(=O)c1cccc(-n2cccc2)c1)c1c(N)n(CCC)c(=O)[nH]c1=O	-10.4	–	29.1 µM [rising, single point]
